Experimental data: PubChem BioAssay AID1508588 (Peter MacCallum Cancer Centre, 2020)
The deposit covers about 18,000 reagents; shown is a part drawn at random. 790 of them (4.4%) count as active. 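Calls rest on a combination of fold-change classes in drug and vehicle arms, not all shown here.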 Unmarked entries are inactive.

Test: 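Knock-downs boosting vemurafenib effects on melanoma cell growth or lactate release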 (primary screen)
Cell system: human WM266.4 melanoma cells (BRAF V600 mutant)
Reagents: siRNA pool against human genes, 40 nM
Duration: 96 h from transfection to read-out
Challenge: vemurafenib 300 nM (about IC25), added 48 h after transfection, for 48 h; comparison arm got DMSO vehicle only
Measurement: 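Cell gain (DAPI nuclei at end minus before drug, mean of two replicates) and medium lactate by absorbance per cell, both as ratio to non-targeting siRNA, also grouped into fold-change classes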
Scale: cell gain with vemurafenib: higher = more cell gain than with non-targeting siRNA; lactate per cell with vemurafenib: higher = more lactate made per cell
Hit rule: 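Enhancement is called by pairing each knock-down's vehicle-arm and drug-arm fold-change classes for viability or glycolysis; which class combinations qualify is not given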
Calls: active = enhances vemurafenib effect; inactive = no enhancement seen

gene	cell gain with vemurafenib	lactate per cell with vemurafenib
PPM1F	0.76	0.4
ALAS2	0.12	0.6
CYLD	-0.08	2.08
CDKN2A	0.36	1.65
C4orf46	0.38	1.69
ASPRV1	0.82	1
ZNF302	0.86	0.28
DCAF15	0.85	1.43
GRIN2A	0.89	0.93
IL22RA2	0.53	0.66
DNMT3L	0.88	0.62
LINGO4	0.11	1.38
TRIML1	0.94	0.7
HUWE1	0.76	0.52
HDAC3	0.43	0.74
PRSS45P	1.1	0.77
TAF1C	0.69	0.86
ZNF521	0.85	0.63
HYPK	0.63	0.9
RPS17	0.03	1.14
HNRNPA1L2	0.38	1.93
SEPTIN6	0.03	1.42
OMD	1.09	0.69
LAMTOR1	0.85	0.7
GRIA1	0.72	0.86
RIMOC1	0.48	0.84
TENT5D	0.52	1.54
CDON	0.93	0.76
OR2J3	0.74	1.17
PIP5K1C	1.06	0.62
FAM220A	0.6	1.44
CD81	0.24	1.7
GPX1	0.6	1.08
BTN2A2	0.72	0.52
ELAVL2	0.76	0.55
ZNF85	0.28	1.75
FCN1	0.21	1.73
MEA1	0.3	1.98
ZNF585A	0.84	0.86
NIPA2	0.78 (active)	0.7
KNDC1	0.98	1.09
ZNRF2	0.99	0.85
PTRH1	0.75	1.36
LINC02875	0.38	1.36
C19orf73	0.61	1.01
FAM174B	0.43	0.97
KCNG4	1.25	0.62
DDT	1.08	0.38
ZNF652	0.77	1
ART5	0.38	2.02
KRT6C	0.55	1.42
SMC3	0.49	1.03
STON2	-0.09 (active)	0.16
SNED1	1.18	0.59
SLC6A2	-0.11	0.59
HRH1	0.62	0.54
SLC23A1	1.29	0.64
AHI1	0.61	0.5
AANAT	0.01	4.1
BNIP2	0.71	0.63
MAGI1	0.63	1.1
KIAA0232	0.32	1.4
STON1	0.85	0.96
PDK4	0.51	0.65
ERMARD	0.89	1.21
ELP2	0.73	0.42
AOPEP	0.91	0.8
TAF6L	0.4	2.2
ABHD3	0.78	0.86
SNAPC3	0.66	0.74
CCDC54	0.45	0.98
HDAC8	0.68	1.75
PADI4	0.4	1.07
LAMTOR5	0.45	1.29
SLC1A3	0.61	0.76
TCF7L1	0.67	0.62
CHAT	0.72	0.5
CALD1	1.11	0.48
RPLP2	0.05	1.02
TMUB1	0.37	1.08
SYT10	0.41	1.06
DDX46	0.1	1.26
CCDC57	0.97	0.79
YIPF7	0.66	0.91

A run of entries taken from the entries so far, for reference:
gene	cell gain with vemurafenib	lactate per cell with vemurafenib
LAMTOR5	0.45	1.29
SLC1A3	0.61	0.76
TCF7L1	0.67	0.62
CHAT	0.72	0.5
CALD1	1.11	0.48
RPLP2	0.05	1.02
TMUB1	0.37	1.08
SYT10	0.41	1.06
DDX46	0.1	1.26
CCDC57	0.97	0.79
YIPF7	0.66	0.91
